Assay results reported in publication doi:10.1101/2022.11.02.514072.
Results are given in words; binding and its absence hold for the method and conditions named. In cells and extracts the contact can be indirect. Some entries that bind do so weakly or less than the wild type. Tags and fused reporters may be left off the sequences shown. Blank lines part the entries; values can stand above or below the binder they belong to.

Sequences of proteins named here, by UniProt entry; tags and fusion partners are left off.
UniProt Q7Z6Z7: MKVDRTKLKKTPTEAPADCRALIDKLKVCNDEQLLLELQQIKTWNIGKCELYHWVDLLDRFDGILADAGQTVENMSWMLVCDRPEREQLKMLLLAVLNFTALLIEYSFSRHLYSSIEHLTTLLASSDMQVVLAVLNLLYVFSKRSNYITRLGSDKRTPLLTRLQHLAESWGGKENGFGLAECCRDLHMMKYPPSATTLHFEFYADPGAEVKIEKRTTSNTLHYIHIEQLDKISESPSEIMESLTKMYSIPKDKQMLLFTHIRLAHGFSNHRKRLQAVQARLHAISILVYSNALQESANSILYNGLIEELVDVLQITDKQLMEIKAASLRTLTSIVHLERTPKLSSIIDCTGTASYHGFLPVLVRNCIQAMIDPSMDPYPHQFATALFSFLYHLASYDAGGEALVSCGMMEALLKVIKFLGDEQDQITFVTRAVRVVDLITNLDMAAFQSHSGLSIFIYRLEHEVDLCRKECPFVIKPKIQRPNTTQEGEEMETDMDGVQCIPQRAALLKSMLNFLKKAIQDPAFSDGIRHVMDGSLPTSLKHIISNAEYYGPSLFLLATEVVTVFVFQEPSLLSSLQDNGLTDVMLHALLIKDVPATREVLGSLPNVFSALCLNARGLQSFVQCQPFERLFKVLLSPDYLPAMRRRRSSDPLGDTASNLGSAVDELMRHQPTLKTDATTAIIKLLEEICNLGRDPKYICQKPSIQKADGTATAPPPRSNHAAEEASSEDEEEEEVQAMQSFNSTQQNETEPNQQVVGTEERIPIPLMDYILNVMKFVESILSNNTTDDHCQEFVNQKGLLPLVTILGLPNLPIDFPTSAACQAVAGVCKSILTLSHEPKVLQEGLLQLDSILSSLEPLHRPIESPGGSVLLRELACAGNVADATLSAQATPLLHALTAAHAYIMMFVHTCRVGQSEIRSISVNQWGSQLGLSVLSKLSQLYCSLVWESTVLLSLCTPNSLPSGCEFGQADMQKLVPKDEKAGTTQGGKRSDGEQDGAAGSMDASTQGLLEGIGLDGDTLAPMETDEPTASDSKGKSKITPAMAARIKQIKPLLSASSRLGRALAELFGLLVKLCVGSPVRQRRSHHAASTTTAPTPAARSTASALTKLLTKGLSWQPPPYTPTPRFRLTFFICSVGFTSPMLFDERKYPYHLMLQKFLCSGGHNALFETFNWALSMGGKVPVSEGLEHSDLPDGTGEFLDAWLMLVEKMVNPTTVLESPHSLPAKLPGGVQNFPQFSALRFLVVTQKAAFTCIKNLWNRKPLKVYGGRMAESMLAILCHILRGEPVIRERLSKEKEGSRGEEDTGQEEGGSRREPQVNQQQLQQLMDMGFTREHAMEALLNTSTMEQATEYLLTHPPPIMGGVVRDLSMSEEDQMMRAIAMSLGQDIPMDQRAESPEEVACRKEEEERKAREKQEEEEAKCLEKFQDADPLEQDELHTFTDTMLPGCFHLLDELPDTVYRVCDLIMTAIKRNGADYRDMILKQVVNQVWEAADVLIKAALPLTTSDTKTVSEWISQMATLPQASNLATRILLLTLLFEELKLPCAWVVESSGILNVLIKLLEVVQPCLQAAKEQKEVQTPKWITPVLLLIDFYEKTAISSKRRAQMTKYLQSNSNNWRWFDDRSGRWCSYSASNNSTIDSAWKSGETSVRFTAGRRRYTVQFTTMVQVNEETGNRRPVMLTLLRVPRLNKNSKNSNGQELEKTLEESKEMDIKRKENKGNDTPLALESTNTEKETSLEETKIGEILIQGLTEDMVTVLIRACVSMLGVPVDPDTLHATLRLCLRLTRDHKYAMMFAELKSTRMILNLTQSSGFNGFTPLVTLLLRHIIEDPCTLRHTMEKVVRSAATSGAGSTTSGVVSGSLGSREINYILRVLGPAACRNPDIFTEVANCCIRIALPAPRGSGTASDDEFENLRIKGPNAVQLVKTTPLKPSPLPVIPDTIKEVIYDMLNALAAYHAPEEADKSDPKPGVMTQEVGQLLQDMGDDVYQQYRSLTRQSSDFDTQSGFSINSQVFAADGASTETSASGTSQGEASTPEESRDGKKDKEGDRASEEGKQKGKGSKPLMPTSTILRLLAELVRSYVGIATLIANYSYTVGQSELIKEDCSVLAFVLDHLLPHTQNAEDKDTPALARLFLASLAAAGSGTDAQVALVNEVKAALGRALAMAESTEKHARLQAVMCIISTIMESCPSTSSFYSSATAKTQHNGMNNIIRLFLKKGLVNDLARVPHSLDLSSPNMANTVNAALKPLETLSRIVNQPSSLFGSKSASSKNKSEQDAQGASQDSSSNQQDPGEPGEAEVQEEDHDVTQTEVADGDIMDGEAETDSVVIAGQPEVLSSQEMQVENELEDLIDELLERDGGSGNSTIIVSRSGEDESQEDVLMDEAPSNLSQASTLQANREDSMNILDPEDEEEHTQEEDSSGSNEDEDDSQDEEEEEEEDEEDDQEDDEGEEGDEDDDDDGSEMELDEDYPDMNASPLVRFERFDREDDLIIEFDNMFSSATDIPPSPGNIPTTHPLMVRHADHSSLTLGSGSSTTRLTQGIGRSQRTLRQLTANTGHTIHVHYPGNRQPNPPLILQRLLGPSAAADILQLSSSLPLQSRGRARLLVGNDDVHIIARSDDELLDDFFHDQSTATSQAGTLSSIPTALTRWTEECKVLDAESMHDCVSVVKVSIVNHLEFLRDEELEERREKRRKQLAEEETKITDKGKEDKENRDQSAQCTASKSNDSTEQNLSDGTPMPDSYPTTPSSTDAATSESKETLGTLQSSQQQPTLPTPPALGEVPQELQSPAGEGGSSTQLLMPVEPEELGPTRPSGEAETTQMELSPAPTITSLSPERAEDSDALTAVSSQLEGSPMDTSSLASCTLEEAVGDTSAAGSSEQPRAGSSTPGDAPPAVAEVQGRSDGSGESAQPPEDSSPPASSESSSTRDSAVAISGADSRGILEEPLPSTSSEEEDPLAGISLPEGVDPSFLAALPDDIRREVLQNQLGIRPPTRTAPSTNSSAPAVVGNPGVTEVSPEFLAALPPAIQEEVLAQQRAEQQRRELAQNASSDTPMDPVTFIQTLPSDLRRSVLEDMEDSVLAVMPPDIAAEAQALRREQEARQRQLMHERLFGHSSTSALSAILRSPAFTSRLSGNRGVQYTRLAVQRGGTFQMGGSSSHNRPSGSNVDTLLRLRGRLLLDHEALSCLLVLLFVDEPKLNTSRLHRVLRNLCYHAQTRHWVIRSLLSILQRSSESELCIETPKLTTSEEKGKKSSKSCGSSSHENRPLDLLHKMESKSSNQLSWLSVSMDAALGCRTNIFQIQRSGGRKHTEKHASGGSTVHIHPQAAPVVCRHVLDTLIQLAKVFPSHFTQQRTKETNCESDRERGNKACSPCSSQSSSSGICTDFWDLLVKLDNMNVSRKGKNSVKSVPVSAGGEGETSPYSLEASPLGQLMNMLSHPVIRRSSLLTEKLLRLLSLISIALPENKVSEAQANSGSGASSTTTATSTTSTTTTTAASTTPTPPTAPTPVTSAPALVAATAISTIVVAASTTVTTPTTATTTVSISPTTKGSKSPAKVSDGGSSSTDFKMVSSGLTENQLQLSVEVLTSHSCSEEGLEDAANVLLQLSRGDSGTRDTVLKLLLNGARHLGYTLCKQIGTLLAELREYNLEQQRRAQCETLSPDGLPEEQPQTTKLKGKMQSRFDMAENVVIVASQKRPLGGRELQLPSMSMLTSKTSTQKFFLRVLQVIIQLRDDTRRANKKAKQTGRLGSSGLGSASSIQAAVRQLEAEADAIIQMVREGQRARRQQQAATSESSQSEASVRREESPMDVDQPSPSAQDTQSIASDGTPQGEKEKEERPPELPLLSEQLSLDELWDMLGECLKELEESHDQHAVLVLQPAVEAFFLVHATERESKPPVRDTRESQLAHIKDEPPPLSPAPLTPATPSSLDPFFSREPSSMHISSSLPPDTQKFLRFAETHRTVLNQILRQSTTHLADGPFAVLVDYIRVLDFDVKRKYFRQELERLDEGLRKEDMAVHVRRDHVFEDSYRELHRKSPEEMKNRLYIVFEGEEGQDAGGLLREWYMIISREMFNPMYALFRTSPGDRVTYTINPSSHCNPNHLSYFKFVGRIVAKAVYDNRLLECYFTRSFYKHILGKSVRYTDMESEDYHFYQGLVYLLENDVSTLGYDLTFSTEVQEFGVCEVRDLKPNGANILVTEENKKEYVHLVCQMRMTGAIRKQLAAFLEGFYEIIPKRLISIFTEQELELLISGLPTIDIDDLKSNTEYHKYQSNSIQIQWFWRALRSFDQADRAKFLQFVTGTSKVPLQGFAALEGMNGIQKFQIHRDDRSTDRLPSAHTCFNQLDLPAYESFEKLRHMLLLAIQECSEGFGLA

Experiments:
SFB-RNF8 = molecular target: T1, SFB-RNF8 (UniProt O76064); assay: co-IP
T1 sequence: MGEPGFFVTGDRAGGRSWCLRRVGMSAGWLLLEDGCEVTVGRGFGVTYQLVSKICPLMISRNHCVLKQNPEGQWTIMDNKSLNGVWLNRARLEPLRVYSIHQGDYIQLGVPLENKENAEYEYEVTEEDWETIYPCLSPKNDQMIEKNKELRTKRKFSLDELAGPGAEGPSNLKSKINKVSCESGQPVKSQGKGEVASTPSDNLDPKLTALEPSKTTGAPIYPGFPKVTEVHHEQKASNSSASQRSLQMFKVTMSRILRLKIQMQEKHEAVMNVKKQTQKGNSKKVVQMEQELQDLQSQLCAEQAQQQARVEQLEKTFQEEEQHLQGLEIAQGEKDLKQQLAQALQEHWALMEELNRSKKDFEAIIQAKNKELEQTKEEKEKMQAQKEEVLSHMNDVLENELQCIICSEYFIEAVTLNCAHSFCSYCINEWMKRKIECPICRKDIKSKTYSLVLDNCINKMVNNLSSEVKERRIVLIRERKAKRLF

[1] = molecular target: Flag-HUWE1 WT (Wild-Type) (UniProt Q7Z6Z7); assay: co-IP

binding (SFB-RNF8): binds
B1: Myc-KDM4A (enzyme, UniProt O75164 1-1064)
chain: MASESETLNPSARIMTFYPTMEEFRNFSRYIAYIESQGAHRAGLAKVVPPKEWKPRASYDDIDDLVIPAPIQQLVTGQSGLFTQYNIQKKAMTVREFRKIANSDKYCTPRYSEFEELERKYWKNLTFNPPIYGADVNGTLYEKHVDEWNIGRLRTILDLVEKESGITIEGVNTPYLYFGMWKTSFAWHTEDMDLYSINYLHFGEPKSWYSVPPEHGKRLERLAKGFFPGSAQSCEAFLRHKMTLISPLMLKKYGIPFDKVTQEAGEFMITFPYGYHAGFNHGFNCAESTNFATRRWIEYGKQAVLCSCRKDMVKISMDVFVRKFQPERYKLWKAGKDNTVIDHTLPTPEAAEFLKESELPPRAGNEEECPEEDMEGVEDGEEGDLKTSLAKHRIGTKRHRVCLEIPQEVSQSELFPKEDLSSEQYEMTECPAALAPVRPTHSSVRQVEDGLTFPDYSDSTEVKFEELKNVKLEEEDEEEEQAAAALDLSVNPASVGGRLVFSGSKKKSSSSLGSGSSRDSISSDSETSEPLSCRAQGQTGVLTVHSYAKGDGRVTVGEPCTRKKGSAARSFSERELAEVADEYMFSLEENKKSKGRRQPLSKLPRHHPLVLQECVSDDETSEQLTPEEEAEETEAWAKPLSQLWQNRPPNFEAEKEFNETMAQQAPHCAVCMIFQTYHQVEFGGFNQNCGNASDLAPQKQRTKPLIPEMCFTSTGCSTDINLSTPYLEEDGTSILVSCKKCSVRVHASCYGVPPAKASEDWMCSRCSANALEEDCCLCSLRGGALQRANDDRWVHVSCAVAILEARFVNIAERSPVDVSKIPLPRFKLKCIFCKKRRKRTAGCCVQCSHGRCPTAFHVSCAQAAGVMMQPDDWPFVVFITCFRHKIPNLERAKGALQSITAGQKVISKHKNGRFYQCEVVRLTTETFYEVNFDDGSFSDNLYPEDIVSQDCLQFGPPAEGEVVQVRWTDGQVYGAKFVASHPIQMYQVEFEDGSQLVVKRDDVYTLDEELPKRVKSRLSVASDMRFNEIFTEKEVKQEKKRQRVINSRYREDYIEPALYRAIME

binding [1]: binds
B2: ASCL1-Myc (protein, UniProt P50553 1-236)
chain: MESSAKMESGGAGQQPQPQPQQPFLPPAACFFATAAAAAAAAAAAAAQSAQQQQQQQQQQQQAPQLRPAADGQPSGGGHKSAPKQVKRQRSSSPELMRCKRRLNFSGFGYSLPQQQPAAVARRNERERNRVKLVNLGFATLREHVPNGAANKKMSKVETLRSAVEYIRALQQLLDEHDAVSAAFQAGVLSPTISPNYSNDLNSMAGSPVSSYSSDEGSYDPLSPEEQELLDFTNWF
